Source: PubChem BioAssay AID1671190 (National Center for Advancing Translational Sciences (NCATS), 2021)
The whole screen tested about 580,000 compounds, of which about 6,100 (1.1%) were called active. This list was built around the results that the source calls inconclusive (neither active nor inactive); the mix of calls is not that of the screen. Calls follow the shape of the dose curve; as a rule, active = well fitted inhibition curve with a large enough effect; inconclusive = small, poorly fitted or top-dose-only effect, or another doubt; inactive = no such curve, though single readings can be large or run the other way. Potencies beside an inconclusive call are fits to weak or partial responses and may not hold up.

By UniProt entry, the sequences of proteins in these tests, tags left out. Where a name states a change or a piece, a line headed by the entry shows the natural chain unless it says otherwise.
UniProt P18054: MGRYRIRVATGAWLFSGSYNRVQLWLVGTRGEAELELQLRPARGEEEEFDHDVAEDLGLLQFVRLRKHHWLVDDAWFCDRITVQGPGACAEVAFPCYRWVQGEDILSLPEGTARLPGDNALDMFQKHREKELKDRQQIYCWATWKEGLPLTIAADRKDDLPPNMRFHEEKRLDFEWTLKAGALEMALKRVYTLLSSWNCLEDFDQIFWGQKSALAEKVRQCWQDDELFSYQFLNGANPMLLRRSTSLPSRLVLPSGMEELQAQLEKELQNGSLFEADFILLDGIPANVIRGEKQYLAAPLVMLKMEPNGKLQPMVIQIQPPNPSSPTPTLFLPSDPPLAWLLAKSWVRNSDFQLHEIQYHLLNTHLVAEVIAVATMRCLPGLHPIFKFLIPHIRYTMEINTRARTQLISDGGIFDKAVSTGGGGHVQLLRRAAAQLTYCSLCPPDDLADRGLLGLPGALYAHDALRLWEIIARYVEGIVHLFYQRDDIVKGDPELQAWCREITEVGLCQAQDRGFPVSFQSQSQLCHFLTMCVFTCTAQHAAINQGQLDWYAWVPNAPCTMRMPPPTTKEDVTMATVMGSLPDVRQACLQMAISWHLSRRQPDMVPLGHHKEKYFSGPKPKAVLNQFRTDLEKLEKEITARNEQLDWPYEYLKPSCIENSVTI

target: Polyunsaturated fatty acid lipoxygenase ALOX12 (Homo sapiens) (UniProt P18054); assay: Primary qHTS assay for inhibitors of human arachidonate 12S-lipoxygenase (ALOX12): Round 2; details: purified 12hLO, xylenol orange hydroperoxide absorbance; activity change, negative = inhibition: at 108 µM (top of the series) unless noted
Summary of the method: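 Hydroperoxide product was detected by ferrous iron/xylenol orange as the 573 to 405 nm absorbance ratio. Arachidonic acid at 40 uM (final) was turned over for 30 min at room temperature by 150 nM human 12hLO, pH 7.0 Hepes buffer, after 15 min compound preincubation.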
% is scaled to controls: 0 for no effect and ±100 for the full control effect; potency is read from the fitted curve at half-maximal effect.

Structure (SMILES) | Potency | activity change, negative = inhibition
COc1cc(C)c(CNc2cccc(C)c2)cc1C | inconclusive: 0.631 µM [inhibitor, full curve, poor fit] | –
COc1cc(/C=C/C(=O)OC2CCC(C(C)(C)C)CC2)cc(OC)c1OC (stereo unspecified) | inconclusive: 112 µM [inhibitor, single point] | –
CCCCSC1(SCCCC)N=C(N)C2(C#N)C(c3ccccc3)NC(C)=CC12C#N (stereo unspecified) | inconclusive: 12.6 µM [inhibitor, partial curve, poor fit] | –
N#Cc1ccc(C(=O)OCC(=O)N2CCN(C(=O)c3ccco3)CC2)cc1 | inconclusive: 89.1 µM [inhibitor, partial curve, poor fit] | –
CCOC(=O)N1CCN(Cc2nc3c(c(=O)[nH]c(=O)n3C)n2Cc2c(F)cccc2Cl)CC1 | – | inactive: 31.5%
Cc1ccc(/C=C2/CNC/C(=C\c3ccc(C)cc3)C2=O)cc1 | inconclusive: 0.794 µM [inhibitor, full curve, poor fit] | –
CN1CCCCCC1=NCCCn1cnc2c1c(=O)[nH]c(=O)n2C | inconclusive: 28.2 µM [inhibitor, partial curve, poor fit] | –
CN1C[C@H](O)C[C@H]1c1nnc2n1CCN(S(=O)(=O)c1ccc(F)cc1)CC2 | inconclusive: 15.8 µM [inhibitor, partial curve] | –
CCOc1ccccc1N1CCN(C(=S)NCc2ccccc2)CC1 | – | inactive: 12.1%
Cc1nc(C)c(C(=O)NNS(=O)(=O)c2ccc([N+](=O)[O-])cc2)s1 | inconclusive: 39.8 µM [inhibitor, partial curve, poor fit] | –
COC(=O)c1c(C)[nH]c(-c2csc(N)n2)c1C | inconclusive: 44.7 µM [inhibitor, partial curve, poor fit] | –
O=C(c1ccn(COc2ccccc2)n1)N1CCN(Cc2ccc(Cl)c(Cl)c2)CC1 | inconclusive: 112 µM [inhibitor, single point] | –
COc1cc(NS(=O)(=O)c2ccc(NC(=S)NC(=O)c3sc4cc(F)ccc4c3Cl)cc2)nc(OC)n1 | inconclusive: 39.8 µM [inhibitor, partial curve] | –
CCN(c1ccccc1)S(=O)(=O)c1cccc(C(=O)NC2CC2)c1 | – | inactive: 9.95%
O=C(N/N=C\c1cccs1)c1cnccn1 | – | inactive: -35.9%
CN(C)CCCNc1ncnc2c1cnn2Cc1ccccc1Cl | inconclusive: 31.6 µM [inhibitor, single point] | –
Cc1ccc(S(=O)(=O)c2c(C)nn(-c3ccccc3)c2OC(=O)c2ccccc2F)cc1 | inconclusive: 31.6 µM [inhibitor, partial curve, poor fit] | –
Cn1c(SCc2ccc(C(C)(C)C)cc2)nnc1C1COc2ccccc2O1 (stereo unspecified) | inconclusive: 100 µM [inhibitor, single point] | –
CCN(CC)c1ccc(NC(=O)C2COc3ccc(OC)cc3C2)c(C)c1 (stereo unspecified) | – | inactive: -26.1%
CCCOc1ccc(OCCNC2CCCC2)cc1 | inconclusive: 1.41 µM [inhibitor, partial curve, poor fit] | –
O=C(Nc1ncc(Cc2cccc(C(F)(F)F)c2)s1)c1ccc(-c2cccc([N+](=O)[O-])c2)o1 | – | inactive: -10.8%

Some values from the list:
Entry of `O=C(N/N=C\c1cccs1)c1cnccn1` under activity change, negative = inhibition: inactive: -35.9%
Entry of `CCCOc1ccc(OCCNC2CCCC2)cc1` under Potency: inconclusive: 1.41 µM [inhibitor, partial curve, poor fit]

The list continues.

Structure (SMILES) | Potency | activity change, negative = inhibition
CCOC(=O)C1(CCOc2ccccc2)CCN(Cc2ccc(O)c(Cl)c2)CC1 | – | inactive: 0%
CCOc1ccc(CCNC(=O)c2ccc3nc(CC)c(CC)nc3c2)cc1 | inconclusive: 50.1 µM [inhibitor, partial curve, poor fit] | –
Cc1nc(SCC(=O)N2CCCCCC2)c2c(=O)n(C)c(=O)n(CC(C)C)c2n1 | inconclusive: 141 µM [inhibitor, single point] | –
Cc1ccc2c(c1)NC(=O)[C@@]1(C)[C@@H](c3ccccc3)[C@H]3COc4ccccc4[C@@H]3N1C2=O | inconclusive: 89.1 µM [inhibitor, single point] | –
NNc1nc(-c2ccccc2)c2cc(Cl)ccc2n1 | inconclusive: 35.5 µM [inhibitor, partial curve, poor fit] | –
CCCCNc1c(-c2ccc(OC)c(SC(C)CC)c2)nc2ccc(C)cn12 (stereo unspecified) | inconclusive: 50.1 µM [inhibitor, partial curve, poor fit] | –
Nc1ccc2nn(-c3ccc(Cl)cc3)nc2c1 | inconclusive: 50.1 µM [inhibitor, single point] | –
Cc1cccc(C)c1NC(=S)NCCSc1ccc(Cl)cc1 | inconclusive: 44.7 µM [inhibitor, partial curve, poor fit] | –
Cc1ccc(C)c(/C=C/C(=O)c2ccccc(=O)c2O)c1 | active: 20 µM | –
CCc1ccc(NC(=O)CCc2nc3sc4c(c3c(=O)[nH]2)CCCC4)cc1 | inconclusive: 44.7 µM [inhibitor, partial curve, poor fit] | –
Cc1cc2oc(=O)c(CC(=O)O)c(C)c2c2occ(C(C)(C)C)c12 | – | inactive: 1.52%
COc1ccc(C(=O)N2CCCC(c3nc(C4CCOCC4)no3)C2)cc1OC (stereo unspecified) | inconclusive: 10 µM [inhibitor, partial curve, poor fit] | –
Cc1ccc2c(Cl)cc(Cl)c(OCC(=O)NC(C)(C)C)c2n1 | inconclusive: 4.47 µM [inhibitor, full curve] | –
CC(C)CCCNCCNC(=O)/C=N/O | inconclusive: 79.4 µM [inhibitor, single point] | –
Cc1nc(SCC(=O)NC2(C#N)CCCC2)n(C2CCCC2)c1C | – | inactive: -6.2%
CN(Cc1ccccc1F)c1nc(-c2cccnc2)nc2ccccc12 | inconclusive: 89.1 µM [inhibitor, partial curve, poor fit] | –
Cc1cc2cc(CNC(=O)c3ccc(S(=O)(=O)N(C)C)cc3)ccc2n1C | inconclusive: 35.5 µM [inhibitor, partial curve, poor fit] | –
Cc1cc(C)c(C#N)c(N2CCN(Cc3ccc4c(c3)OCO4)CC2)n1 | inconclusive: 112 µM [inhibitor, single point] | –
COc1cc(CC(=O)NCCc2ccc(S(N)(=O)=O)cc2)cc(OC)c1OC | – | inactive: -25.6%
Cc1ccc(-c2nnc(NC(=O)c3ccco3)o2)c(C)c1 | inconclusive: 56.2 µM [inhibitor, partial curve, poor fit] | –
